For one substance, binding results are on record in PMC5041921.

Sequences of proteins named here, by UniProt entry; tags and fusion partners are left off. Residues count along the entry.
UniProt P03211, residues 379-641: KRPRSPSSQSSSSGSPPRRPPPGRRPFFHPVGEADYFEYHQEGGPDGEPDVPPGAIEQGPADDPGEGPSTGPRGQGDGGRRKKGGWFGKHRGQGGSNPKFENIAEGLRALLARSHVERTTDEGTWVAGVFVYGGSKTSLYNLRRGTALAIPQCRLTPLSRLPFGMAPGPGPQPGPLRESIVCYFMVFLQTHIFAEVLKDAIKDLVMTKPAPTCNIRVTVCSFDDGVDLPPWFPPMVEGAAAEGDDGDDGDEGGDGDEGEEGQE
UniProt P28482: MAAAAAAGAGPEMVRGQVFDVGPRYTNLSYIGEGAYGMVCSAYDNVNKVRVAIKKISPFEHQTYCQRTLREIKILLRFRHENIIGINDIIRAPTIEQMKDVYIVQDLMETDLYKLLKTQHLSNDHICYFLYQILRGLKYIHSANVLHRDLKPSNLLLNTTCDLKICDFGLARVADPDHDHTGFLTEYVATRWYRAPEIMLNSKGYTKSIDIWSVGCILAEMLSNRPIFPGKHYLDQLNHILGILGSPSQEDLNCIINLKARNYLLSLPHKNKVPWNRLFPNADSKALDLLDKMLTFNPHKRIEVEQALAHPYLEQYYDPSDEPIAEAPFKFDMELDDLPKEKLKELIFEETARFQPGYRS

These are yes or no findings as the source states them, for the method shown. In cells and extracts the contact can be indirect. Some binding calls cover weakened binding; strength is not graded here.

The target in this assay is 6x histidine-tagged EBNA1 a.a. 379-641 WT (Epstein-Barr virus (Human herpesvirus 4)) (UniProt P03211). In words: pull-down; only the target purified.

Take “ERK2 (extracellular signal-regulated kinase 2) (from UniProt P28482 1-360) (enzyme)”: the binding result is recorded as “binds”.
